Data published in publication PMC5896214.
These are yes or no findings as the source states them, for the method shown. Binding seen in cells or lysates may run through a third protein. Binding can be weak; no strength is given. Tags and fused reporters may be left off the sequences shown.

Target: Myc-PDZD7 (mouse PDZD7 short isoform, amino acids 1-557) (mouse)
Assay: co-IP; HEK293T cells transfected with Myc- and EGFP-tagged proteins; lysis in 150 mM NaCl, 50 mM Tris pH 7.5, 1% Triton X-100; immobilized anti-Myc antibody, 4°C, 2 hours; blot with anti-Myc or anti-GFP

binding: binds
B1: EGFP-CADM1 (mouse, full-length) (protein, UniProt Q8R5M8 48-456)
chain: QNLFTKDVTVIEGEVATISCQVNKSDDSVIQLLNPNRQTIYFRDFRPLKDSRFQLLNFSSSELKVSLTNVSISDEGRYFCQLYTDPPQESYTTITVLVPPRNLMIDIQKDTAVEGEEIEVNCTAMASKPATTIRWFKGNKELKGKSEVEEWSDMYTVTSQLMLKVHKEDDGVPVICQVEHPAVTGNLQTQRYLEVQYKPQVHIQMTYPLQGLTREGDAFELTCEAIGKPQPVMVTWVRVDDEMPQHAVLSGPNLFINNLNKTDNGTYRCEASNIVGKAHSDYMLYVYDPPTTIPPPTTTTTTTTTTTTTILTIITDTTATTEPAVHDSRAGEEGTIGAVDHAVIGGVVAVVVFAMLCLLIILGRYFARHKGTYFTHEAKGADDAADADTAIINAEGGQNNSEEKKEYFI
